# Reference: PubChem BioAssay AID504327 (National Center for Advancing Translational Sciences (NCATS), 2011)
# By UniProt entry, the sequences of proteins in these tests, tags left out.
# UniProt Q92830, whole entry, looked up: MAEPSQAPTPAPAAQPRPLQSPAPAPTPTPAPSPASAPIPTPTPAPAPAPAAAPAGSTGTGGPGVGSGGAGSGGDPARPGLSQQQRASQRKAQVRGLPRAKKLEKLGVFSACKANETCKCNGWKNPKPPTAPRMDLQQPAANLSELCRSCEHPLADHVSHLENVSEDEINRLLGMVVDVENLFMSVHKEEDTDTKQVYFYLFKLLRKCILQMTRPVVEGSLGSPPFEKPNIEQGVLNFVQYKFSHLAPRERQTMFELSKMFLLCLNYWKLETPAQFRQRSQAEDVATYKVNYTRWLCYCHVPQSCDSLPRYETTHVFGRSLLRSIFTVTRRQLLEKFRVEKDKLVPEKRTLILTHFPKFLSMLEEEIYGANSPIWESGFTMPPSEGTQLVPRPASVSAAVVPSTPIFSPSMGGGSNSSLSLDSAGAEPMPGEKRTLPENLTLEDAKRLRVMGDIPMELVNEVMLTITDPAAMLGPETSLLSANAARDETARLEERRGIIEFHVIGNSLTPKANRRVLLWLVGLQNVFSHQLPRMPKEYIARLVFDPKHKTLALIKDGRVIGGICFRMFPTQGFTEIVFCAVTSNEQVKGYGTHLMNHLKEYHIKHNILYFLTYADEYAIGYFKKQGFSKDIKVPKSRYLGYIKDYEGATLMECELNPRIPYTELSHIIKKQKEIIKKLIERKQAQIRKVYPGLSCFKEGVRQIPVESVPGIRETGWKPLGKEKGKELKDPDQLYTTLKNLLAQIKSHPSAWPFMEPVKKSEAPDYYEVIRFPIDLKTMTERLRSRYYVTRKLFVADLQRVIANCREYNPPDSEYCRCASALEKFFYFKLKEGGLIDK
# Screen size: about 390,000 compounds; about 820 (0.21%) were called active. This list was built around the results that the source calls inconclusive (neither active nor inactive); the mix of calls is not that of the screen. The call rests on the fitted dose curve; in most records, active means well fitted inhibition curve with a large enough effect; inconclusive means small, poorly fitted or top-dose-only effect, or another doubt; inactive means no such curve, though single readings can be large or run the other way. Potencies of inconclusive entries are doubtful fits and often do not repeat.
# Biological target: Histone acetyltransferase KAT2A (Homo sapiens) (UniProt Q92830)
# Assay: qHTS Assay for Inhibitors of GCN5L2
# Details: GCN5L2 HAT assay, ThioGlo1 CoA-SH fluorescence; activity change, negative = inhibition: at 58.9 µM (top of the series) unless noted
# In short: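 GCN5L2 (20 nM) in 50mM HEPES pH 7.5, 0.1mM EDTA, 0.01% Tween-20 preincubated 15 min with compounds at room temperature. Reaction started with H3(1-25) 75uM, acetyl-CoA 70uM, ThioGlo1 50uM; CoA-thiol fluorescence (Ex340/Em540) read at 0 and 20 min.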
# On the % scale 0 is the no-effect control and ±100 the full control effect; potency means the concentration at half of the fitted maximal effect.
Compound,"activity change, negative = inhibition",Potency
S=C(Nc1ccc(CN2CCCCC2)cc1)Nc1cccc(Cl)c1Cl,inactive: -0.604%,
Cc1ccc2[nH]c(=O)c(CN(CCCO)S(=O)(=O)c3c(C)ccc4nsnc34)cc2c1,inactive: -2.6%,
FC(F)(F)c1ccccc1/C=N/n1c(COc2ccccc2)n[nH]c1=S,inactive: -10.2%,
CC(C)CN=Cc1c(O)c([N+](=O)[O-])cc2oc3c(c12)CCCC3,,"inconclusive: 39.8 µM [inhibitor, single point]"
CC1CC(C)CN(C(=O)COC(=O)COc2ccc(C#N)cc2)C1 (centres undefined),,"inconclusive: 39.8 µM [inhibitor, single point]"
O=C(C1CCCN(Cc2ccccc2C(F)(F)F)C1)N1CCCCC1 (centres undefined),,active: 1 µM
Cc1ccc(C(=O)Nc2ccc(-c3nc4ccccc4s3)c(O)c2)c(C)c1,,"inconclusive: 8.91 µM [inhibitor, partial curve]"
Cc1cc(C)cc(NC(=S)N(Cc2ccc(Br)cc2)Cc2ccc(C(=O)O)cc2)c1,,"inconclusive: 39.8 µM [inhibitor, single point]"
Cc1cccc([C@@H]2[C@@H]3C(=O)N(Cc4ccccc4)C(=O)[C@@H]3[C@]3(C)C(=O)N(c4ccc(C(F)(F)F)cc4)C(=O)N23)c1,,"inconclusive: 8.91 µM [inhibitor, full curve, poor fit]"
CCN(C(=O)CSc1ncc(S(=O)(=O)c2ccc(C)c(Cl)c2)c(=O)[nH]1)c1cccc(C)c1,inactive: -7.11%,
S=c1nc(-c2ccco2)[nH][nH]1,inconclusive: -77.7% [inhibitor],
CCCc1cc(=O)oc2c3c(c(Cl)cc12)OCN(CCCO)C3,,active: 12.6 µM
O=C(NCCC(=O)N1CCN(C(=O)c2ccco2)CC1)c1ccc(Br)cc1,inactive: 1.33%,
Cc1nn(C(C)C)c(C)c1CN1CCC(C(=O)Nc2cccc(-c3cccc(F)c3)c2)CC1,,"inconclusive: 7.08 µM [inhibitor, single point]"
CCOC1C(=O)NC(=O)N1Cc1ccccc1 (centres undefined),,"inconclusive: 5.62 µM [inhibitor, single point]"
CCN(CC)c1ccc(NC(=O)c2ccccc2F)cc1S(=O)(=O)Nc1ccccc1OC,inactive: -6.74%,
CN(C)S(=O)(=O)Oc1cc(Cl)ccc1C(=O)Nc1ccc(F)cc1F,inactive: -4.95%,
COC(=O)c1c(-c2cccs2)csc1NC(=O)c1ccc(Cl)cc1,,"inconclusive: 25.1 µM [inhibitor, single point]"
CC1=CC(C)(C)Nc2ccc(OC(=O)CN3C(=O)c4cccc5cccc(c45)C3=O)cc21,,"inconclusive: 1 µM [inhibitor, partial curve, poor fit]"
COc1cc(C2C(C(=O)c3cc4ccccc4o3)=C(O)C(=O)N2CCN2CCOCC2)ccc1OCCC(C)C (centres undefined),,"inconclusive: 5.62 µM [inhibitor, single point]"
O=c1c(-c2cc(F)cc(F)c2)nc2cnc(N3CCNCC3)nc2n1-c1ccccc1,,"inconclusive: 17.8 µM [inhibitor, partial curve]"
CCCc1nnc(NC(=O)c2cccs2)s1,,"inconclusive: 0.708 µM [inhibitor, single point]"

Compound,"activity change, negative = inhibition",Potency
COc1ccc(-c2nn(-c3ccccc3)cc2C(=O)NCC(c2cccs2)N2CCOCC2)cc1 (centres undefined),,"inconclusive: 25.1 µM [inhibitor, single point]"
FC(F)(F)C1CCCN(c2nsc3ccccc23)C1 (centres undefined),,active: 2.82 µM
O=S(=O)(Nc1nc2ccccc2nc1Nc1cccc(S(=O)(=O)N2CCCCC2)c1)c1ccccc1,,"inconclusive: 39.8 µM [inhibitor, single point]"
Cc1ccc(S(=O)(=O)N2[C@@H](c3ccc(Br)cc3)C(C(=O)O)=C[C@H]2CC2CCCC2)cc1,,"inconclusive: 39.8 µM [inhibitor, single point]"
O=C(CSc1nc2c(oc3ccccc32)c(=O)n1Cc1ccco1)Nc1cccc(Cl)c1,inactive: -5.62%,
COc1cc2c(cc1NS(=O)(=O)c1cccc(C#N)c1)n(C)c(=O)n2C,inactive: 21.9%,
Cc1ccc(S(=O)(=O)N2CCCCC2C(=O)N(C)c2ccccc2)cc1 (centres undefined),,"inconclusive: 39.8 µM [inhibitor, single point]"
CCOC(=O)C1CCCN(S(=O)(=O)c2ccc(S(=O)(=O)N3CCCC3)cc2)C1 (centres undefined),inactive: 0.715%,
O=C(N/N=C/C1CC=CCC1)c1ccc(Cl)cc1O (centres undefined),inactive: 44%,
CCN1C(=O)c2cccc3c(S(=O)(=O)N(C(=O)c4ccncc4)c4ccc(OC)cc4)ccc1c23,,"inconclusive: 31.6 µM [inhibitor, single point]"
CCOc1ccccc1C(=O)Nc1c(NC)c2ccccc2oc1=O,inactive: -7.53%,
Cc1ccc(S(=O)(=O)NC(C(=O)Oc2ccc3c(C)c(Cl)c(=O)oc3c2)c2ccccc2)cc1 (centres undefined),,"inconclusive: 35.5 µM [inhibitor, single point]"
COC(=O)Cc1ccc(NC(=O)c2ccc3c(c2)C(=O)N(CC2CCCO2)C3=O)cc1 (centres undefined),,"inconclusive: 8.91 µM [inhibitor, single point]"
CC(=O)NC(c1ccc(Cl)cc1Cl)c1ccc2cccnc2c1O (centres undefined),inactive: -3.51%,
S=c1nc(C2COc3ccccc3O2)[nH][nH]1 (centres undefined),,"inconclusive: 39.8 µM [inhibitor, single point]"
O=C(O)COc1ccccc1C=NNc1ccc([N+](=O)[O-])cc1S(=O)(=O)Nc1ccc(Cl)cc1,,"inconclusive: 39.8 µM [inhibitor, single point]"
CC(C)(C)C(=O)Nc1ccc(/C=C/C(=O)c2ccco2)cc1,,"inconclusive: 8.91 µM [inhibitor, single point]"
CCCCCn1cnc2c(=S)nc(N)[nH]c21,inactive: -16.6%,
CCN1/C(=C/c2ccc3cccc(C)c3[n+]2CC)Sc2ccccc21,,"inconclusive: 5.62 µM [inhibitor, single point]"
COc1cc(/C=C2\SC(c3ccc(C)cc3)=NC2=O)ccc1O,,"inconclusive: 39.8 µM [inhibitor, single point]"
C=CCc1ccc(OCCOCCOc2ccccc2[N+](=O)[O-])c(OC)c1,,"inconclusive: 8.91 µM [inhibitor, single point]"
CCc1nn2c(=O)c(S(=O)(=O)Nc3ccc(OC)c(Cl)c3)c(C)nc2s1,inactive: -6.96%,

# Looked up above.
# Under activity change, negative = inhibition, CCc1nn2c(=O)c(S(=O)(=O)Nc3ccc(OC)c(Cl)c3)c(C)nc2s1 shows inactive: -6.96%
# Under activity change, negative = inhibition, CCCCCn1cnc2c(=S)nc(N)[nH]c21 shows inactive: -16.6%
